From the supplement of paper PMC10338343
± gives the standard deviation. The list shows a part of the results, in another mix than the full data. Many of these values have a large error.

Columns and labels:
[1] = test system: MILI (PIWIL2) piRISC loaded with piRNA #1 (26 nt); assay: pre-steady-state target cleavage rate (min^-1); higher = faster piRNA-guided slicing of the target; conditions: guide: piRNA #1 5'p-UGAGGUAGUAGGUUGUAUAGUAUCCA; auxiliary factor: 500 nM mouse GTSF1
Outline: (§1)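 In Cleave-'n-Seq, a transcribed, DNA-blocked target RNA library (0.1 nM) was combined with 1 nM active affinity-purified piRISC bearing one synthetic guide, with or without 500 nM GTSF1 partner protein. Reactions ran in HEPES–potassium acetate buffer at 33 °C for 0–8 or 0–960 min. Uncleaved targets were sequenced and normalised to depth and to weakly complementary targets, three trials were pooled, and k3 was capped at 0.0001 min^-1. The pre-steady-state cleavage rate was obtained by fitting a burst-and-steady-state model.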

[2] = test system: EfPiwi piRISC loaded with piRNA #1 (26 nt); assay: pre-steady-state target cleavage rate (min^-1); guide: piRNA #1 5'p-UGAGGUAGUAGGUUGUAUAGUAUCCA; higher = faster piRNA-guided slicing of the target; conditions: auxiliary factor: 500 nM Ephydatia muelleri Gtsf1
Outline: as §1

[3] = test system: MIWI (PIWIL1) piRISC loaded with L1MC piRNA (30 nt); assay: pre-steady-state target cleavage rate (min^-1); MIWI and MILI are mouse PIWI proteins and EfPiwi is from a freshwater sponge; tags in brackets are library labels; higher = faster piRNA-guided slicing of the target; conditions: guide: L1MC piRNA 5'p-UAACUAAAUACUAUGCAAGCUGUAGGUCCU
Outline: as §1

[4] = auxiliary factor: none (no GTSF1)
[5] = auxiliary factor: 500 nM mouse GTSF1

GGAGAGGAUACUAUACAACCUUCUACGUCA
pre-steady-state target cleavage rate [1]: 0.00117 ± 0.0051 | pre-steady-state target cleavage rate [2]: 0.00356 ± 0.0021

GGAGACCUAUGUAUAGAACCUACUACCUGA
pre-steady-state target cleavage rate [1]: 0.00583 ± 0.0025 | pre-steady-state target cleavage rate [2]: 0.000649 ± 0.0092

GGAGACCUAUGUAUAGAACCUUCUACCUCA
pre-steady-state target cleavage rate [1]: 0.00216 ± 0.0027 | pre-steady-state target cleavage rate [2]: < 0.0001

GGAGACGAUAGUAUACAACCUACUAGCUCA
pre-steady-state target cleavage rate [1]: 0.0976 ± 0.021 | pre-steady-state target cleavage rate [2]: 0.00161 ± 0.0018

GGAGACCUAUGAUAUGUACCUACUACCUCCA
pre-steady-state target cleavage rate [1]: 0.000124 ± 0.018 | pre-steady-state target cleavage rate [2]: 0.000193 ± 0.029

GGAGACCUUACUAUACAAGCUACAACCUCA
pre-steady-state target cleavage rate [1]: 0.239 ± 0.018 | pre-steady-state target cleavage rate [2]: 0.00109 ± 0.0031

GGAGACCUUACUAUACAACCUUGUACCUCA
pre-steady-state target cleavage rate [1]: 0.000951 ± 0.0093 | pre-steady-state target cleavage rate [2]: 0.00267 ± 0.0031

GGAGACCUAUGAUAUGAAGCUACAACCUCA
pre-steady-state target cleavage rate [1]: 0.000346 ± 0.013 | pre-steady-state target cleavage rate [2]: 0.000329 ± 0.013

GGAGACCUUACUAUACAUCCUACUACCUCA
pre-steady-state target cleavage rate [1]: 0.292 ± 0.024 | pre-steady-state target cleavage rate [2]: 0.00607 ± 0.0029

GGAGACCUAUCUAUACAACCUUCUAGCUCA
pre-steady-state target cleavage rate [1]: 0.00247 ± 0.0038 | pre-steady-state target cleavage rate [2]: 0.000342 ± 0.0085

GGAGAGGAUACUAUACAUGGUACUACCUCA
pre-steady-state target cleavage rate [1]: 0.00387 ± 0.0028 | pre-steady-state target cleavage rate [2]: 0.00195 ± 0.0028

GGAGACGAUACUAUACAACCUACUACCUCU [g2:g24:cont:t1U]
pre-steady-state target cleavage rate [1]: 0.24 ± 0.019 | pre-steady-state target cleavage rate [2]: 1.35 ± 0.49

GGAGACCAUACAAUACAACCUACUACGUCA
pre-steady-state target cleavage rate [1]: 0.0912 ± 0.014 | pre-steady-state target cleavage rate [2]: 0.00359 ± 0.004

GGAGACCUAUGUAUACAACCAUGAUGGAGA [g11:g19:cont:t1A]
pre-steady-state target cleavage rate [1]: 0.000486 ± 0.0098 | pre-steady-state target cleavage rate [2]: 0.00131 ± 0.0058

GGAGACGAUACUUAACAACCUACUACCUCA
pre-steady-state target cleavage rate [1]: 0.134 ± 0.013 | pre-steady-state target cleavage rate [2]: 0.00683 ± 0.0038

GGAGACCUUUACUAUACAACCUACUACCUCA
pre-steady-state target cleavage rate [1]: 0.154 ± 0.012 | pre-steady-state target cleavage rate [2]: 0.00394 ± 0.0042

GGAGUGGAUACUAUACAACGAUGAUGGAGA [g12:g26:cont:t1A]
pre-steady-state target cleavage rate [1]: 0.000514 ± 0.0092 | pre-steady-state target cleavage rate [2]: 0.00221 ± 0.0033

GGAGACCUAUGAUAUGUACCUACUCCCUCA
pre-steady-state target cleavage rate [1]: 0.000169 ± 0.018 | pre-steady-state target cleavage rate [2]: 0.000107 ± 0.022

GGAGACCUAUCUAUACAACCUACUUGGAGA [g7:g20:cont:t1A]
pre-steady-state target cleavage rate [1]: 0.00296 ± 0.0032 | pre-steady-state target cleavage rate [2]: 0.00211 ± 0.005

GGAGACCUAUCUAUACAAGCUACUACCACA
pre-steady-state target cleavage rate [1]: 0.278 ± 0.019 | pre-steady-state target cleavage rate [2]: 0.00241 ± 0.0041

GGAGACCAUACUAUACAACGAACUACCUCA
pre-steady-state target cleavage rate [1]: 0.00198 ± 0.0035 | pre-steady-state target cleavage rate [2]: 0.00189 ± 0.0071

GGAGACCUAUGUGUACAACCUACUACCUCA
pre-steady-state target cleavage rate [1]: 0.0178 ± 0.0035 | pre-steady-state target cleavage rate [2]: 0.00301 ± 0.0033

GGAGACCUAUGUAUACAACAUACUACCUCA
pre-steady-state target cleavage rate [1]: 0.0179 ± 0.0028 | pre-steady-state target cleavage rate [2]: 0.0022 ± 0.0033

GGAGACGAUACUAUACAUGGUACUACCUCA
pre-steady-state target cleavage rate [1]: 0.00601 ± 0.0019 | pre-steady-state target cleavage rate [2]: 0.00229 ± 0.0031

GGAGUGGAUACUAUACAACCUUGAUGGAGA [g10:g26:cont:t1A]
pre-steady-state target cleavage rate [1]: 0.000131 ± 0.019 | pre-steady-state target cleavage rate [2]: 0.00116 ± 0.0022

GGAGACCUAUGAUAUCGAACCUACUACCUCA
pre-steady-state target cleavage rate [1]: 0.000841 ± 0.0053 | pre-steady-state target cleavage rate [2]: 0.000507 ± 0.01

UCCUGGAUGUCGAACCAUAGUAUAUAGUAA
pre-steady-state target cleavage rate [3, 4]: 0.000105 ± 0.021

GGAGACGAUACUUUACAACCUUCUACCUCA
pre-steady-state target cleavage rate [1]: 0.00805 ± 0.0018 | pre-steady-state target cleavage rate [2]: 0.00188 ± 0.0031

GGAGACCUUAGUAUACAACCUACUACGUCA
pre-steady-state target cleavage rate [1]: 0.0155 ± 0.0047 | pre-steady-state target cleavage rate [2]: 0.00245 ± 0.0035

GGAGACGCUACUAUACAACCUACUACCUCA
pre-steady-state target cleavage rate [1]: 0.228 ± 0.019 | pre-steady-state target cleavage rate [2]: 0.163 ± 0.051

GGAGAGGAUACUAUACAACCUACUACCUCU [g2:g25:cont:t1U]
pre-steady-state target cleavage rate [1]: 0.238 ± 0.025 | pre-steady-state target cleavage rate [2]: 1.56 ± 0.47

GGAGACCUAUCUAUUCAACCUAGUACCUCA
pre-steady-state target cleavage rate [1]: 0.00955 ± 0.0033 | pre-steady-state target cleavage rate [2]: 0.0004 ± 0.0056

GGAGACCUUACUAUAGAACCAACUACCUCA
pre-steady-state target cleavage rate [1]: 0.00175 ± 0.0038 | pre-steady-state target cleavage rate [2]: 0.00116 ± 0.0053

UGGACCUACAGCUUGCAUAGUAUAAAGAAA
pre-steady-state target cleavage rate [3, 4]: 0.00191 ± 0.0034

GGAGACCAUACUAUACAACCUACAUGCUCA
pre-steady-state target cleavage rate [1]: 0.134 ± 0.028 | pre-steady-state target cleavage rate [2]: 0.00144 ± 0.0044

GGAGACCUAUGUAUACAACCUACUACCUUCA
pre-steady-state target cleavage rate [1]: 0.0648 ± 0.0099 | pre-steady-state target cleavage rate [2]: 0.00201 ± 0.0048

GGAGACGAUACUAUACAACCUACAUGGAGA [g8:g24:cont:t1A]
pre-steady-state target cleavage rate [1]: 0.00182 ± 0.0043 | pre-steady-state target cleavage rate [2]: 0.00239 ± 0.0034

GGAGACCUAUGAUAUGUACGUACUUCCUCA
pre-steady-state target cleavage rate [1]: 0.00021 ± 0.023 | pre-steady-state target cleavage rate [2]: 0.000661 ± 0.009

GGAGACCAUACUAUACAACCAUGUACCUCA
pre-steady-state target cleavage rate [1]: 0.000824 ± 0.0073 | pre-steady-state target cleavage rate [2]: 0.000177 ± 0.022

GGAGACCAUAGUAUACAACCAACUACCUCA
pre-steady-state target cleavage rate [1]: 0.00718 ± 0.0021 | pre-steady-state target cleavage rate [2]: 0.00183 ± 0.0062

UCCACCUACAGCUUGCAUUCUAUUUUCAAA
pre-steady-state target cleavage rate [3, 4]: 0.000751 ± 0.0078

GGAGACCUAACGAUACAACCUACUACCUCA
pre-steady-state target cleavage rate [1]: 0.257 ± 0.053 | pre-steady-state target cleavage rate [2]: 0.0136 ± 0.0071

GGAGACCUAUCUAUACAACCUAGAUCCUCA
pre-steady-state target cleavage rate [1]: 0.0047 ± 0.0021 | pre-steady-state target cleavage rate [2]: 0.00111 ± 0.0067

GGAGACCUAUGAUUACAACCUUGAUGGAGA [g10:g17:cont:t1A]
pre-steady-state target cleavage rate [1]: 0.000124 ± 0.02 | pre-steady-state target cleavage rate [2]: 0.00011 ± 0.028

GGAGACCUAUGAUAACAACCUACUACCCCA
pre-steady-state target cleavage rate [1]: 0.00141 ± 0.006 | pre-steady-state target cleavage rate [2]: 0.00113 ± 0.0081

GGAGACCAUACUAUACAACCUAGUACCUGA
pre-steady-state target cleavage rate [1]: 0.00189 ± 0.0048 | pre-steady-state target cleavage rate [2]: 0.00278 ± 0.0021

GGAGACCUAACUAUUCAACCUACUACCUGA
pre-steady-state target cleavage rate [1]: 0.0858 ± 0.03 | pre-steady-state target cleavage rate [2]: 0.00317 ± 0.0044

GGAGAGGAUACUAUAUCAACCUACUACCUCA
pre-steady-state target cleavage rate [1]: 0.107 ± 0.0098 | pre-steady-state target cleavage rate [2]: 0.0145 ± 0.0066

GGAGACCUAUGAUAUGAUACCUACUACCUCA
pre-steady-state target cleavage rate [1]: 0.000217 ± 0.011 | pre-steady-state target cleavage rate [2]: 0.000765 ± 0.0072

GGAGUGGUUACUAUACUACCUACUACCUCA
pre-steady-state target cleavage rate [1]: 0.183 ± 0.01 | pre-steady-state target cleavage rate [2]: 0.00596 ± 0.0023

GGAGACCUUAGUAUACAAGCUACUACCUCA
pre-steady-state target cleavage rate [1]: 0.174 ± 0.012 | pre-steady-state target cleavage rate [2]: 0.00181 ± 0.0039

GGAGACCUUACUAUAGAACCUACUAGCUCA
pre-steady-state target cleavage rate [1]: 0.00445 ± 0.0038 | pre-steady-state target cleavage rate [2]: 0.000717 ± 0.0058

GGAGAGGAUACUAUACAAGCUACUUCCUCA
pre-steady-state target cleavage rate [1]: 0.0737 ± 0.013 | pre-steady-state target cleavage rate [2]: 0.00375 ± 0.0015

GGAGACCUAUGAUUUGAACCUACUACCUCA
pre-steady-state target cleavage rate [1]: 0.000307 ± 0.01 | pre-steady-state target cleavage rate [2]: 0.000256 ± 0.0097

GGAGACCUAUGAUAUCAACCUAGAUGGAGA [g9:g15:cont:t1A]
pre-steady-state target cleavage rate [1]: 0.000695 ± 0.0064 | pre-steady-state target cleavage rate [2]: 0.000714 ± 0.0071

GGAGACCUAUCUAUACUUCCUACUACCUCA
pre-steady-state target cleavage rate [1]: 0.054 ± 0.013 | pre-steady-state target cleavage rate [2]: 0.00374 ± 0.0038

GGAGACGAAACUAUACAACCUACUACGUCA
pre-steady-state target cleavage rate [1]: 0.0713 ± 0.022 | pre-steady-state target cleavage rate [2]: 0.00245 ± 0.0024

GGAGACCUAUCUAUUCAACGUACUACCUCA
pre-steady-state target cleavage rate [1]: 0.00945 ± 0.003 | pre-steady-state target cleavage rate [2]: 0.00247 ± 0.005

GGAGUGGAUACUUUACAACCUACUUCCUCA
pre-steady-state target cleavage rate [1]: 0.00204 ± 0.0024 | pre-steady-state target cleavage rate [2]: 0.00136 ± 0.0034

GGAGAGGAUACUAUACAUCCUACUAGCUCA
pre-steady-state target cleavage rate [1]: 0.0023 ± 0.0045 | pre-steady-state target cleavage rate [2]: 0.00277 ± 0.0019

GGAGACGAUACUAUACAACCAUGUACCUCA
pre-steady-state target cleavage rate [1]: 0.00226 ± 0.0027 | pre-steady-state target cleavage rate [2]: 0.00168 ± 0.0029

GGAGUGGAUACUAUUCAACCUACUACCACA
pre-steady-state target cleavage rate [1]: 0.093 ± 0.0098 | pre-steady-state target cleavage rate [2]: 0.00327 ± 0.0022

UCCUGGAUGUCGAACGUAAGUAUUUUCAUA
pre-steady-state target cleavage rate [3, 5]: 0.000233 ± 0.038

UGGACCUACAGCUAGCAUAGUAUUUAGUUA
pre-steady-state target cleavage rate [3, 5]: 1.41 ± 0.074

UCGACCUAGCAGCUUGCAUAGUAUUUAGUUA
pre-steady-state target cleavage rate [3, 5]: 1.34 ± 0.058

AGGACCUACUGCUUGGAUAGUAUUUAGUUA
pre-steady-state target cleavage rate [3, 5]: 1.34 ± 0.052

UCCUGGAUGUCGAACGUAUCUAAAUAGUUA
pre-steady-state target cleavage rate [3, 5]: 0.000269 ± 0.015
